Results published in PubChem BioAssay AID493014 (National Center for Advancing Translational Sciences (NCATS), 2011).
In all, about 340,000 compounds went through this assay and about 170 (0.05%) were called active. The inconclusive results got no clear call from the source; some entries with a clear call stand among them for comparison. Calls follow the shape of the dose curve; as a rule, active = well fitted inhibition curve with a large enough effect in the signal ratio, with a control signal flat (not every such curve was filed as active); inconclusive = small, poorly fitted or top-dose-only effect, or effect the other way, or a change in a side signal; inactive = flat fitted curve, though single readings scatter; the % refers to the signal ratio. Where the call is inconclusive, the potency comes from a doubtful curve fit.

Assay: qHTS Assay to Find Inhibitors of Chronic Active B-Cell Receptor Signaling;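 as to activity change, negative = inhibition: plate controls were basal doxycycline-induced cells for no effect and cells given 10 µM MG132 for full effect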
Settings: ABC-DLBCL IkBa-CBG/CBR reporter, luminescence ratio (green luciferase fused to IkBa over red control in TMD8 lymphoma cells), 4 h; activity change, negative = inhibition: at 46.1 µM (top of the series)
Summary of the method: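 Doxycycline induced both beetle luciferases in TMD8 lymphoma cells; IKK-driven degradation limits the IkappaBalpha-fused green signal, while red luminescence normalises for cell number and nonspecific effects. Compounds tested up to 46 uM, 4 hrs.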
Potency is read from the fitted curve at half-maximal effect.

SMILES | activity change, negative = inhibition | Potency
CC1CCN(S(=O)(=O)N2CCN(C(=O)c3ccc4c(c3)OCO4)CC2)CC1 | inactive | 
N/C(=N\OC(=O)c1ccccc1Cl)c1cccc([N+](=O)[O-])c1 | inconclusive: 2.23% | 
CCOc1ccc(CNC(=O)CCCOc2cc(=O)n(C)c3ccccc23)cc1 |  | inconclusive: 29.1 µM [rising, single point]
O=C(COC(=O)C1CC2C=CC1C2)Nc1c(Br)cc([N+](=O)[O-])cc1Br (stereo unspecified) | inactive | 
CCOC(=O)C1CCCN(c2c(NCCN3CCCCC3CC)c(=O)c2=O)C1 (stereo unspecified) | inconclusive: 11% | 
c1cncc(-c2cccnc2)c1 | inactive | 
O=C(Nc1ccccc1Cl)C(Cl)C(=O)c1ccccc1 (stereo unspecified) | inactive | 
COc1ccc(-c2nnc(SCC(=O)Nc3cccc(C(F)(F)F)c3)nc2-c2ccc(OC)cc2)cc1 | inactive | 
COc1ccc(-c2coc3cc(O)ccc3c2=O)cc1O |  | inconclusive: 12.6 µM [falling, partial curve, poor fit]
CCN(CC)CCCN=Cc1c(-c2ccccc2)[nH]n(-c2nc3ccccc3s2)c1=O |  | inconclusive: 35.5 µM [falling, single point]
O=C(Nc1ccc2c(c1)Cc1ccccc1-2)c1ccncc1 | inconclusive: -9.21% | 
Cc1ncc(CO)c(/C=N/NC(=O)c2ccoc2C)c1O |  | inconclusive: 29.1 µM [falling, single point]
CC1(C)C(=O)OC(c2ccc([N+](=O)[O-])cc2)C(C)(C)C1=O (stereo unspecified) | inactive | 
COc1ccc(C=O)cc1CSc1nnc(COc2cccc3cccnc23)o1 |  | inconclusive: 0.00461 µM [falling, full curve, poor fit]
Fc1ccc(-c2cc(C(F)(F)F)nc(-n3cc(Cl)cn3)n2)cc1 | inconclusive: 0.478% | 
CCOc1ccc(NC(=O)c2c(NCc3cccnc3)sc3c2CCCC3)cc1 |  | inconclusive: 35.5 µM [rising, single point]
Cc1cc(N2CCCCC2)nc(-c2ccc(Br)cc2)n1 | inconclusive: 14.1% | 
Fc1ccccc1-c1nc(NCc2ccco2)c2ccccc2n1 | inconclusive: 3.08% | 
CCOC(=O)c1ccc(NC(=O)N2CCN(S(C)(=O)=O)CC2)cc1 | inconclusive: -0.52% | 
Fc1cc(NCc2ccccc2)nc(NCc2ccccc2)n1 |  | inconclusive: 32.6 µM [falling, partial curve, poor fit]
Cc1ccccc1NC1=C(Cl)C(=O)N(C2CCCCC2)C1=O | inconclusive: -17.9% | 

Not a retest: three of the compounds above.
SMILES | activity change, negative = inhibition | Potency
O=C(COC(=O)C1CC2C=CC1C2)Nc1c(Br)cc([N+](=O)[O-])cc1Br (stereo unspecified) | inactive | 
CCOC(=O)C1CCCN(c2c(NCCN3CCCCC3CC)c(=O)c2=O)C1 (stereo unspecified) | inconclusive: 11% | 
c1cncc(-c2cccnc2)c1 | inactive | 

(list continues)

SMILES | activity change, negative = inhibition | Potency
O=C(CSc1nnc(-c2ccccc2F)o1)N1CCNC1=O | inconclusive: 0.282% | 
O=C(O)CCCC(=O)Nc1ccc(Br)cc1C(=O)O |  | inconclusive: 4.61 µM [falling, partial curve]
COc1ccc(OC)c(Nc2ncnc3c2cnn3-c2ccccc2)c1 |  | inconclusive: 5.17 µM [rising, full curve, poor fit]
Cc1ccc(NC(=O)/C(=C/c2cccc([N+](=O)[O-])c2)NC(=O)C2CCCCC2)cc1 | inconclusive: 7.55% | 
CC(C)C(NC(=O)c1ccccc1F)C(=O)NCCc1ccccn1 (stereo unspecified) | inconclusive: -1.28% | 
NC(=O)c1oc2ccccc2c1NC(=O)CCc1ccccc1 |  | inconclusive: 1.03 µM [rising, partial curve]
O=C(CNC(=O)c1ccco1)OCC(=O)c1ccc([N+](=O)[O-])cc1 | inconclusive: -7.44% | 
O=C(Nc1nccs1)c1cc(-c2ccccc2)nn1-c1ccccc1 | inconclusive: 9.73% | 
CCN(CC)S(=O)(=O)c1ccc2c(c1)nc(SCC(=O)NCC1CCCO1)n2CC (stereo unspecified) | inactive | 
CC(C)(C)C(=O)NC(n1cnc2c(N3CCOCC3)ncnc21)C(Cl)(Cl)Cl (stereo unspecified) |  | inconclusive: 7.94 µM [falling, single point]
O=[N+]([O-])c1ccc(N/N=C/c2cccnc2)cc1 | inconclusive: 3.79% | 
CCOC(=O)Cc1csc(NC(=O)c2ccc3ccccc3n2)n1 |  | inconclusive: 12.6 µM [falling, partial curve]
CCOc1ccc(-c2nnc(SCC(=O)N(CC)CC)n2N)cc1 | inconclusive: 5.15% | 
CC(=O)N1c2ccccc2C(C)(c2ccccc2)CC1(C)C (stereo unspecified) | inconclusive: 17.2% | 
COc1ccc(CNC(=O)C(=O)NCC2OCCN2S(=O)(=O)c2ccc3c(c2)OCCO3)cc1 (stereo unspecified) | inconclusive: 1.15% | 
Cc1ccccc1Nc1nc(N)nc(CCl)n1 | inconclusive: 3.07% | 
CCOC(=O)C1(Cc2ccccc2)CCN(C2Cc3ccccc3C2)CC1 | inactive | 
O=S(=O)(NCC(c1cccs1)S(=O)(=O)c1ccccc1)c1ccc(F)cc1 (stereo unspecified) | inconclusive: 9.22% | 
O=C(NC(=S)Nc1ccc2c(c1)OCCO2)c1ccc(F)cc1Cl |  | inconclusive: 25.9 µM [falling, partial curve, poor fit]
O=C(NC1CCCc2ccccc21)c1ccc(F)cc1F (stereo unspecified) | inconclusive: 9.58% | 
COc1ccc(CCNC(=O)CSc2nnc(-c3ccc(F)cc3)c3ccccc23)cc1OC | inconclusive: -7.88% | 

Arranged by count of non-hydrogen atoms (ascending): some entries from above.
SMILES | activity change, negative = inhibition | Potency
O=C(CNC(=O)c1ccco1)OCC(=O)c1ccc([N+](=O)[O-])cc1 | inconclusive: -7.44% | 
CC(C)C(NC(=O)c1ccccc1F)C(=O)NCCc1ccccn1 (stereo unspecified) | inconclusive: -1.28% | 
CC(C)(C)C(=O)NC(n1cnc2c(N3CCOCC3)ncnc21)C(Cl)(Cl)Cl (stereo unspecified) |  | inconclusive: 7.94 µM [falling, single point]

Next entries

SMILES | activity change, negative = inhibition | Potency
COc1ccc2c(Cl)c(C(=O)NCCCn3ccnc3)sc2c1 | inconclusive: 10.8% | 
Cc1ccsc1C(=O)OCC(=O)NCc1ccccc1 | inconclusive: -20.7% | 
Cc1ccc(S(=O)(=O)Nc2ccccc2/C=N/c2nc3ccccc3n2C)cc1 | inconclusive: 15.4% | 
O=C(COC(=O)Cc1cccc(C(F)(F)F)c1)Nc1cccc2ccccc12 |  | inconclusive: 29.1 µM [falling, single point]
CC(=O)Nc1ccc(NC(=O)C2CCCN2/C=C/C(=O)C(F)(F)F)cc1 (stereo unspecified) |  | inconclusive: 3.16 µM [falling, full curve, poor fit]
COCCNC(=O)c1cc2c(=O)n3cccc(C)c3nc2n1C | inconclusive: 9.24% | 
CCOC(=O)CSc1n[nH]c(=S)s1 | inactive | 
Nc1nc(N2CCN(C/C=C/c3ccccc3)CC2)nc2ccccc12 | inconclusive: 6.83% | 
Cc1ccc(C)c(Nc2ncnc3nc[nH]c23)c1 |  | inconclusive: 0.651 µM [falling, full curve, poor fit]
CC(=O)Nc1cccc(C(=O)/C=C/c2ccc(C)cc2)c1 |  | inconclusive: 9.2 µM [falling, partial curve, poor fit]
Cc1ccc(-c2nc(CS(=O)(=O)CC(=O)N3CCc4ccccc4C3)c(C)o2)cc1 | inactive | 
Cc1ccc(NC(=O)C2CCCN(S(=O)(=O)c3cccc4nonc34)C2)cc1 (stereo unspecified) | inactive | 
CCC(=O)NCCc1nc2ccccc2[nH]1 | inconclusive: 15.4% | 
O=C(CN(C(=O)c1csnn1)c1ccc(F)cc1)NCc1ccc(F)cc1 |  | inconclusive: 2.82 µM [falling, partial curve]
Cc1ccc(C=Nc2ccccc2C(N)=O)s1 | inconclusive: -11.2% | 
O=S(=O)(c1cccc(C(F)(F)F)c1)N1CCN(S(=O)(=O)c2ccc3c(c2)OCCO3)CC1 | inactive | 
CCCCOC(=O)c1ccc(NC(=S)NC(=O)c2c(Br)c(C)nn2C)cc1 |  | inconclusive: 0.146 µM [falling, full curve, poor fit]
C=CCN(CC=C)CCOc1cccc2ccccc12 | inconclusive: 5% | 
COc1ccc(CCNC(=O)c2cc3c(=O)n4cccc(C)c4nc3n(Cc3ccncc3)c2=N)cc1 | inactive | 
Cc1nn(-c2ccccc2)c(N2CCCC2)c1/C=N/Nc1ccc(S(N)(=O)=O)cc1[N+](=O)[O-] | inactive | 
O=C(CCc1ccccc1)NNC(=O)c1cccc(F)c1 |  | inconclusive: 22.4 µM [falling, single point]

SMILES | activity change, negative = inhibition | Potency
Cc1cc(NC(=O)CSc2nnc(-c3c[nH]c4ccccc34)n2-c2ccc(Cl)cc2)no1 | inconclusive: 7.72% | 
COc1ccc(NC2=Nc3cccc4cccc2c34)cc1OC |  | inconclusive: 11.2 µM [falling, partial curve]
O=C(COC(=O)Cc1ccc(S(=O)(=O)N2CCCCC2)s1)Nc1ccc2c(c1)OCO2 | inconclusive: -1.4% | 
CC1=C(C/C=C(\C)CCCC(C)CCCC(C)CCCC(C)C)C(=O)c2ccccc2C1=O (stereo unspecified) | inconclusive: -14% | 
COc1cc(C(=O)NCc2ccncc2)cc(Br)c1OCc1ccccc1 | inactive | 
Cc1cccc(NC(=S)NC(=O)c2ccc(Br)o2)c1 |  | inconclusive: 17.8 µM [falling, single point]
COc1ccc(N(CC(=O)NCC(C)C)S(=O)(=O)c2ccccc2)cc1 | inconclusive: 1.99% | 
COc1cc(/C=C(/C#N)c2nc3ccccc3c(=O)[nH]2)ccc1O |  | inconclusive: 23.1 µM [falling, single point]
Cc1ccc2nc(NCc3ccccc3)c(C#N)cc2c1 | inconclusive: 4.14% | 
COc1cc(/C=C2/NC(=O)N(Cc3ccccc3F)C2=O)cc(OC)c1O | inactive | 
O=C(CSc1nc2ccccc2o1)Nc1nc(-c2ccccc2)cs1 |  | inconclusive: 20.6 µM [falling, partial curve]
O=C(N/N=C/c1c(O)ccc2ccccc12)c1[nH]ncc1Br |  | inconclusive: 25.9 µM [falling, partial curve, poor fit]
CC(=O)Nc1ccc(NC(=O)CNC(=O)COc2ccccc2)cc1 | inconclusive: 7.04% | 
COc1ccc(/C=C2/SC(=S)N(CCC(=O)O)C2=O)cc1 | inconclusive: -89.1% | 
Cc1nn2c(=S)[nH]nc2[nH]c1=O | inconclusive: 3.56% | 
O=C(Nc1ccc(S(=O)(=O)N2CCOCC2)cc1)c1cc(S(=O)(=O)N2CCOCC2)ccc1Cl | inactive | 
CN(CC(=O)Nc1sccc1C#N)C1CCCCC1 | inactive | 
O=C(NCCCCCNC(=O)c1cccnc1)c1cccnc1 | inconclusive: 0.0003% | 
